{"sequences": {"note": "Protein sequences, listed by entry. Tags and fused reporters are not part of them.", "UniProt Q9BUR4": "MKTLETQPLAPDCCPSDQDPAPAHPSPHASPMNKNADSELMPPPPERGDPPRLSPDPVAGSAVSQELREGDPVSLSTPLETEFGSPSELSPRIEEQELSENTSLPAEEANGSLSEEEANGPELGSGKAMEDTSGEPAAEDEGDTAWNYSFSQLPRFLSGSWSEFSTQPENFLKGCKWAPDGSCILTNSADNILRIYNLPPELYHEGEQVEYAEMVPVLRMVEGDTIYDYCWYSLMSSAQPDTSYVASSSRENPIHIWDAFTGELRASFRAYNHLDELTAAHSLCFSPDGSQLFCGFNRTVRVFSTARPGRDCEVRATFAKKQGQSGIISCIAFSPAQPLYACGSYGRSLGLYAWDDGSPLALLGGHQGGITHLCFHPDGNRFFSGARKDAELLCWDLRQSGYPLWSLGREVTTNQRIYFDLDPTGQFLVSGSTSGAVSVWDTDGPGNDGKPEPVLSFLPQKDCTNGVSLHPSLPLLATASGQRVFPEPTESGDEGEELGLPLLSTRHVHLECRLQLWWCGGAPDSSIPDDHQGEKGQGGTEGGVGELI", "UniProt O14746": "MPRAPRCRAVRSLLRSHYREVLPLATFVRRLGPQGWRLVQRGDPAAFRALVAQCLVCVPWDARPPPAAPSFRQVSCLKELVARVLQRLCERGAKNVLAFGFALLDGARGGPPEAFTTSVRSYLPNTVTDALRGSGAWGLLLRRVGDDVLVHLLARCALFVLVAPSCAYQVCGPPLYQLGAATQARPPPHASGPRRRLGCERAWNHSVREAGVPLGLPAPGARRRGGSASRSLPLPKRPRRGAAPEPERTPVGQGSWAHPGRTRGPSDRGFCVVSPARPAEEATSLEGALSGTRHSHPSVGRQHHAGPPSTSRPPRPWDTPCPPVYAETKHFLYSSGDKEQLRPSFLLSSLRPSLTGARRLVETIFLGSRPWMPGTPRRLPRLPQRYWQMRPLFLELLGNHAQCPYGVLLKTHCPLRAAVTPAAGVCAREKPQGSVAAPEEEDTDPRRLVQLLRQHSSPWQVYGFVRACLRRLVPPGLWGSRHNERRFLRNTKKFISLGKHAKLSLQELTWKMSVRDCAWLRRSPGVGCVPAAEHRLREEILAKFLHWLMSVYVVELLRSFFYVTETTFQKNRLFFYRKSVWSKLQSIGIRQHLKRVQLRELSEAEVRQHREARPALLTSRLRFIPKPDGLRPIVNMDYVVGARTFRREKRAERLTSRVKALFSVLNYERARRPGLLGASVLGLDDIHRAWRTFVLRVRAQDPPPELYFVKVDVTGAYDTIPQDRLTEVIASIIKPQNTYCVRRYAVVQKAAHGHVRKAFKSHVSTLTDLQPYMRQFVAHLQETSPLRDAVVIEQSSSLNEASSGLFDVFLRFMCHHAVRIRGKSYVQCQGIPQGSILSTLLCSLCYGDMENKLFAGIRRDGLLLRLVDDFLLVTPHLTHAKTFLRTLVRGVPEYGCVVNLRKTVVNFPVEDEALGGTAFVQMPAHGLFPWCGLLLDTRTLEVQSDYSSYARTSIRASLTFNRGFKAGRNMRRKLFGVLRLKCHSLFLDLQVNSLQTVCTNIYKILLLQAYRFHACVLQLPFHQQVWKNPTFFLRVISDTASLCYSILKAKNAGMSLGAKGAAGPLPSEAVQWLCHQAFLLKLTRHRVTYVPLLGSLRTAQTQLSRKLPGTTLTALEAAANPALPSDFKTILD"}, "source": "paper PMC8648750", "key": {"[1]": {"molecular_target": "telomerase Cajal body protein 1 (TCAB1), twin-strep-tagged (human) (UniProt Q9BUR4)", "assay": "affinity purification with mass spectrometry; two-step tandem affinity purification from lysate of Tc6-3 cells co-expressing hTR: Strep-Tactin XT resin (twin-strep TCAB1), eluted with 50 mM biotin, then anti-Flag resin (triple Flag-TERT), eluted with Flag peptide; buffer A 20 mM HEPES pH 7.9, 200 mM KCl, 10% glycerol, 2 mM MgCl2, 1 mM EDTA, 0.1% IgePal CA-630; purified RNP analysed by mass spectrometry"}, "[2]": {"molecular_target": "telomerase reverse transcriptase (TERT) catalytic subunit, triple Flag-tagged (human) (UniProt O14746)", "assay": "affinity purification with mass spectrometry; two-step tandem affinity purification from lysate of Tc6-3 cells co-expressing hTR: Strep-Tactin XT resin (twin-strep TCAB1), eluted with 50 mM biotin, then anti-Flag resin (triple Flag-TERT), eluted with Flag peptide; buffer A 20 mM HEPES pH 7.9, 200 mM KCl, 10% glycerol, 2 mM MgCl2, 1 mM EDTA, 0.1% IgePal CA-630; purified RNP analysed by mass spectrometry"}}, "note": "Results are given in words; binding and its absence hold for the method and conditions named. Binding seen in cells or lysates may run through a third protein. These calls come from enrichment with a bait or labelling near it, and not all partners need be listed.", "data": [{"molecule": "telomerase reverse transcriptase (TERT) catalytic subunit, triple Flag-tagged (from UniProt O14746 1-1132) (enzyme)", "values": [{"measurement": "binding", "setting": "[1]", "result": "binds"}]}, {"molecule": "dyskerin (protein, UniProt O60832 1-514) MADAEVIILPKKHKKKKERKSLPEEDVAEIQHAEEFLIKPESKVAKLDTSQWPLLLKNFDKLNVRTTHYTPLACGSNPLKREIGDYIRTGFINLDKPSNPSSHEVVAWIRRILRVEKTGHSGTLDPKVTGCLIVCIERATRLVKSQQSAGKEYVGIVRLHNAIEGGTQLSRALETLTGALFQRPPLIAAVKRQLRVRTIYESKMIEYDPERRLGIFWVSCEAGTYIRTLCVHLGLLLGVGGQMQELRRVRSGVMSEKDHMVTMHDVLDAQWLYDNHKDESYLRRVVYPLEKLLTSHKRLVMKDSAVNAICYGAKIMLPGVLRYEDGIEVNQEIVVITTKGEAICMAIALMTTAVISTCDHGIVAKIKRVIMERDTYPRKWGLGPKASQKKLMIKQGLLDKHGKPTDSTPATWKQEYVDYSESAKKEVVAEVVKAPQVVAEAAKTAKRKRESESESDETPPAAPQLIKKEKKKSKKDKKAKAGLESGAEPGDGDSDTTKKKKKKKKAKEVELVSE", "values": [{"measurement": "binding", "setting": "[1]", "result": "binds"}, {"measurement": "binding", "setting": "[2]", "result": "binds"}]}, {"molecule": "GAR1 (protein, UniProt Q9NY12 1-217) MSFRGGGRGGFNRGGGGGGFNRGGSSNHFRGGGGGGGGGNFRGGGRGGFGRGGGRGGFNKGQDQGPPERVVLLGEFLHPCEDDIVCKCTTDENKVPYFNAPVYLENKEQIGKVDEIFGQLRDFYFSVKLSENMKASSFKKLQKFYIDPYKLLPLQRFLPRPPGEKGPPRGGGRGGRGGGRGGGGRGGGRGGGFRGGRGGGGGGFRGGRGGGFRGRGH", "values": [{"measurement": "binding", "setting": "[1]", "result": "binds"}, {"measurement": "binding", "setting": "[2]", "result": "binds"}]}, {"molecule": "NOP10 (protein, UniProt Q9NPE3 1-64) MFLQYYLNEQGDRVYTLKKFDPMGQQTCSAHPARFSPDDKYSRHRITIKKRFKVLMTQQPRPVL", "values": [{"measurement": "binding", "setting": "[1]", "result": "binds"}, {"measurement": "binding", "setting": "[2]", "result": "binds"}]}, {"molecule": "NHP2 (protein, UniProt Q9NX24 1-153) MTKIKADPDGPEAQAEACSGERTYQELLVNQNPIAQPLASRRLTRKLYKCIKKAVKQKQIRRGVKEVQKFVNKGEKGIMVLAGDTLPIEVYCHLPVMCEDRNLPYVYIPSKTDLGAAAGSKRPTCVIMVKPHEEYQEAYDECLEEVQSLPLPL", "values": [{"measurement": "binding", "setting": "[2]", "result": "binds"}]}]}
